Data as given in doi:10.1101/2022.10.12.22280984.
Where two headings read alike, the source gives them in different places. These are yes or no findings as the source states them, for the method shown. For some assays here: In cells and extracts the contact can be indirect. Some entries that bind do so weakly or less than the wild type.

Sequences of proteins named here, by UniProt entry; tags and fusion partners are left off.
UniProt P12004: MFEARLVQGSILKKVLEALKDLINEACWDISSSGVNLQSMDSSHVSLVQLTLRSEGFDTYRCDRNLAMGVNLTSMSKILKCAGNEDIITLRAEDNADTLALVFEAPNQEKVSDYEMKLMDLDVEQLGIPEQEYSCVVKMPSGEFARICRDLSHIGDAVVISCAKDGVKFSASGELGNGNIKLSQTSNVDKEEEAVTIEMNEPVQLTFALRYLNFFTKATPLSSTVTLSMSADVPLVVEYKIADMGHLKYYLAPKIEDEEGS
UniProt P14598: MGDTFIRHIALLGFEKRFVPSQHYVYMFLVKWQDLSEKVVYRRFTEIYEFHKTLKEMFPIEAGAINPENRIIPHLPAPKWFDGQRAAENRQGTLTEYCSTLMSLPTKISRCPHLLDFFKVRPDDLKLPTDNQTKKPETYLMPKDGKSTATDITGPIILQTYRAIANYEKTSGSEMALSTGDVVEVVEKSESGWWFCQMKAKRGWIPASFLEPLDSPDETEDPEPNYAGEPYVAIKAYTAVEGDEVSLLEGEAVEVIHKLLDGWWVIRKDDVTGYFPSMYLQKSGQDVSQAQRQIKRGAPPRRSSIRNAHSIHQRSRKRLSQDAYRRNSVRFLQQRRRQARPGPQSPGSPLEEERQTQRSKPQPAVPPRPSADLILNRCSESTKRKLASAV

B1: recombinant human S100A9 (protein, UniProt P06702 1-114)
chain: MTCKMSQLERNIETIINTFHQYSVKLGHPDTLNQGEFKELVRKDLQNFLKKENKNEKVIEHIMEDLDTNADKQLSFEEFIMLMARLTWASHEKMHEGDEGPGHHHKPGLGEGTP
B2: recombinant human S100A8 (protein, UniProt P05109 1-93)
chain: MLTELEKALNSIIDVYHKYSLIKGNFHAVYRDDLKKLLETECPQYIRKKGADVWFKELDINTDGAVNFQEFLILVIKMGVAAHKKSHEESHKE
B3: recombinant human S100A8/A9 heterodimer (calprotectin), 1:1 complex (complex, UniProt P05109 1-93; P06702 1-114)
chain 1: B2 chain
chain 2: B1 chain
B4: S100A8 of neutrophils (protein, UniProt P05109 1-93)
chain: B2 chain

Legend:
[1] = target: cytosolic proliferating cell nuclear antigen (PCNA) of neutrophils (human (endogenous in neutrophils)) (UniProt P12004); experiment: proximity ligation
[2] = target: proliferating cell nuclear antigen (PCNA), recombinant (UniProt P12004); experiment: SPR
[3] = target: cytosolic proliferating cell nuclear antigen (PCNA) of neutrophils (human (endogenous in neutrophils)) (UniProt P12004); experiment: proximity ligation; remark: listed apart in the source

Molecule	binding [2]	other results
p47phox of neutrophils, cytosolic NADPH oxidase subunit (from UniProt P14598 1-390)		binding [1]: binds
B1	no binding (tested: 2 μM)	
B2	binds	
B3	no binding (tested: 2 μM)	
B4		binding [3]: binds
